# Percent effect of library compounds

Sequences of proteins named here, by UniProt entry; tags and fusion partners are left off. Residues count along the entry.
UniProt Q8IDJ8, 1-583: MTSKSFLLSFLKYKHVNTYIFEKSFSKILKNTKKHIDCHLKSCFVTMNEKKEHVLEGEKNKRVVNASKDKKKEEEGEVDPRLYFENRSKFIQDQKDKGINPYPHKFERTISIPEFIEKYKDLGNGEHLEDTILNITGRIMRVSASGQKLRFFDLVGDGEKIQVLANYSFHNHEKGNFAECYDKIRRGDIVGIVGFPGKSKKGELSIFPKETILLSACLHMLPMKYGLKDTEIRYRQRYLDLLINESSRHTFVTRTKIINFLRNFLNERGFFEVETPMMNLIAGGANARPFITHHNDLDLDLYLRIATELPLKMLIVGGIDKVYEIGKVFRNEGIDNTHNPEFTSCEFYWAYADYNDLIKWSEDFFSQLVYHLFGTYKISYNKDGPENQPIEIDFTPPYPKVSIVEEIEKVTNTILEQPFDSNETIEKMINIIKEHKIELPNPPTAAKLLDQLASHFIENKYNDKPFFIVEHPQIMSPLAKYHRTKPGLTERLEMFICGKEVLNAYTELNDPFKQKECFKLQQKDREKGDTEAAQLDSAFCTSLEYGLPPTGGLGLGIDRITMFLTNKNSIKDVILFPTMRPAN
UniProt A4I591, 1-473: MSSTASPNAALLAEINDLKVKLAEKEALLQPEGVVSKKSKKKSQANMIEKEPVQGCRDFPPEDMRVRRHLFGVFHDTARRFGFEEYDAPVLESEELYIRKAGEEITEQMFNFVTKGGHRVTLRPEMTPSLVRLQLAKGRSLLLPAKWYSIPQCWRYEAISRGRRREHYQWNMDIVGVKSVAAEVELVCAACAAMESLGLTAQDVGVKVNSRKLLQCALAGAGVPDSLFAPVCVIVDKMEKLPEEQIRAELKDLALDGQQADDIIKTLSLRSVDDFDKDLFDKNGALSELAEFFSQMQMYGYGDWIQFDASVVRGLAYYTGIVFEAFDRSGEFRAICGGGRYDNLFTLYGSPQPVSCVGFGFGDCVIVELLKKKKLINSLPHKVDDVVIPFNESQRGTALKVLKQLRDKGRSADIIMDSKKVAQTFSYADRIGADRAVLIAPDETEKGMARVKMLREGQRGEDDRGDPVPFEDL
UniProt Q4DA54, 1-478: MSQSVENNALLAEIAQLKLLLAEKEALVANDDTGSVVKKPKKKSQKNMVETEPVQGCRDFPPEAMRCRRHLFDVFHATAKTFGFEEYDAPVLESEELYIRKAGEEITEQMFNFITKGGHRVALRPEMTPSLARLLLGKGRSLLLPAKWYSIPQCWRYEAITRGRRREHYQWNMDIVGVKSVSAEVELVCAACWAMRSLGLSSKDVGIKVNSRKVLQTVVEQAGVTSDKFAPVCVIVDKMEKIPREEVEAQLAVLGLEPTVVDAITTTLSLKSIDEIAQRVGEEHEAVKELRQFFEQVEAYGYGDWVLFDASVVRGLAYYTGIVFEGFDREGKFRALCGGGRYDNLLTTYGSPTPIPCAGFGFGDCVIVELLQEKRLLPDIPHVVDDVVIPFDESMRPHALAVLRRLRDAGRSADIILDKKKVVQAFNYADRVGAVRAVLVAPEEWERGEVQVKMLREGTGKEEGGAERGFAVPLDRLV
UniProt P9WPC5, whole entry: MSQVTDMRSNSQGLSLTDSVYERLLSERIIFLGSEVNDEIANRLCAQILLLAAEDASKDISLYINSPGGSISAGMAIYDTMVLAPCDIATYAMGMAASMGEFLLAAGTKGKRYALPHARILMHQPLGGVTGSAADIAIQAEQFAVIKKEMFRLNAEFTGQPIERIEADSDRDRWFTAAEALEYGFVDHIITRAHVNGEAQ
UniProt P9WPC3, whole entry partner: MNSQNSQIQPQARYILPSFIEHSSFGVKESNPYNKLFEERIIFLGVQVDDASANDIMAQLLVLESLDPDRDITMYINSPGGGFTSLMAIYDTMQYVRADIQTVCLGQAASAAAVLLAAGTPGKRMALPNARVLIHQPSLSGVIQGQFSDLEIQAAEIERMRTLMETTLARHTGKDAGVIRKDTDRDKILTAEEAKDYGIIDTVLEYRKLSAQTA

Data taken from ChEMBL document CHEMBL3988442, “University of Dundee, Small-Polar-MMV Screening Library” (2021).

The filed quantity is “Percent Effect” (%). The controls that fix the scale are not given in the record; negative values are as filed. Compounds were drawn at random from those tested, without regard to their results. Two or more numbers in one place are separate tests of the same structure; such repeats can differ widely. A dash means the value is not listed here; it may have been measured.

PfKRS1: 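Enzyme assay of the cytosolic lysyl-tRNA synthetase in 384-well plates, read by luminescence. Target: Lysine-tRNA ligase, Plasmodium falciparum 3D7 (UniProt Q8IDJ8). Compounds at 30 µM. Higher reads as stronger inhibition, judged from the few compounds that gave an IC50. Size under these conditions: about 69,000 compounds, about 49 of them at 50% or above in at least one test.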
LiHisRS: 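Enzyme assay of histidyl-tRNA synthetase; the read-out is not stated. Target: Histidine-tRNA ligase, Leishmania infantum (UniProt A4I591). Concentration: 30 µM. Higher reads as stronger inhibition (inferred: compounds with an IC50 in retests scored well above the rest). The assay is labelled LdHisRS but filed under L. infantum. About 69,000 compounds were tested under these conditions; 0.6% (about 410) showed 50% or more at least once.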
TcHisRS: 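Enzyme assay of histidyl-tRNA synthetase; the read-out is not stated. Target: Histidine-tRNA ligase, Trypanosoma cruzi CL Brener (UniProt Q4DA54). Compounds at 30 µM. Higher reads as stronger inhibition (inferred: compounds with an IC50 in retests scored well above the rest). About 69,000 compounds were tested under these conditions; 0.045% (about 31) showed 50% or more at least once.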
Leishmania in macrophages: 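Cell assay of Leishmania donovani living inside macrophages; the read-out is not stated. Concentration: 30 µM. Direction is inferred from retests: higher values go with stronger inhibition. Size under these conditions: about 69,000 compounds, about 1,000 of them at 50% or above in at least one test.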
ClpP1P2: 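Protease assay of ClpP1P2, read by the AMC dye that it sets free. Target: ClpP1P2, Mycobacterium tuberculosis (UniProt P9WPC5 and UniProt P9WPC3). Compounds at 50 µM. Higher reads as stronger inhibition, judged from the few compounds that gave an IC50. Most other retested compounds had strongly negative values. About 69,000 compounds were tested under these conditions; 0.015% (about 10) showed 50% or more at least once.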

Compound: CCS(=O)(=O)Nc1cnn(Cc2cccc(F)c2)c1
PfKRS1: 1.121
LiHisRS: 16.48
TcHisRS: 3.96
Leishmania in macrophages: -3.12
ClpP1P2: -4.389

Compound: O=C(Cn1cc(-c2ccccc2)ncc1=O)Nc1ncc[nH]1
PfKRS1: 6.913
LiHisRS: 12.99
TcHisRS: 6.061
Leishmania in macrophages: -14.55
ClpP1P2: -23.87

Compound: CCN(CC1CCOCC1)C(=O)C1CC(=O)N(Cc2cccnc2)C1 (centres unmarked)
PfKRS1: -1.374
LiHisRS: 4.918
TcHisRS: -0.4292
Leishmania in macrophages: 20.17
ClpP1P2: -6.184

Compound: COc1cc(-n2cc(CCO)cn2)ccc1NC(C)=O
PfKRS1: 9.83
LiHisRS: 31.65
TcHisRS: 9.914
Leishmania in macrophages: 27.15
ClpP1P2: -16.04

Compound: CC(C)=CCN1CC2(CCN(Cc3ncc[nH]3)CC2)CC1=O
PfKRS1: -8.016
LiHisRS: 4.274
TcHisRS: 2.222
Leishmania in macrophages: 8.589
ClpP1P2: 12.3

Compound: O=C(O)C(F)(F)F.O=C(O)C(F)(F)F.c1cc(CN2CCC3(CCOCC3COCC3CC3)CC2)ccn1 (centres unmarked)
Leishmania in macrophages: 4.845

Compound: O=C(c1cnc2ccc(Cl)cc2c1NCc1ccco1)N1CCCCC1
PfKRS1: 2.248
LiHisRS: 18.68
TcHisRS: 0
Leishmania in macrophages: -0.01015
ClpP1P2: -9.337

Compound: O=C(NCC1(O)CCSCC1)c1nccc2ccccc12
PfKRS1: 2.995
LiHisRS: 8.333
TcHisRS: 5.882
Leishmania in macrophages: -8.283
ClpP1P2: 3.63

Compound: CNC(=O)NCC1CCC2(CCN(C(=O)c3cccnc3)CC2)CO1.O=C(O)C(F)(F)F (centres unmarked)
Leishmania in macrophages: 18.48

Compound: OC(CNCc1ccccc1C(F)(F)F)c1ccccc1 (centres unmarked)
PfKRS1: -0.4004
LiHisRS: -2.941
TcHisRS: 5.82
ClpP1P2: -1.443

Compound: O=C(NC1=NCCS1)C1CSCN1C(=O)C1CCCC1 (centres unmarked)
PfKRS1: 8.267
LiHisRS: 13.7
TcHisRS: 7.937
Leishmania in macrophages: -19.85
ClpP1P2: -0.1289

Compound: CC(C)(C)n1ncc(NCC(O)c2ccc(F)c(F)c2)c(Cl)c1=O (centres unmarked)
PfKRS1: 3.215
LiHisRS: 11.7
TcHisRS: 5.051
Leishmania in macrophages: 23.63
ClpP1P2: 3.678

Compound: Cc1ccc(N2CC3(COCCN(Cc4cnn(C)c4)C3)OCC2=O)s1.O=C(O)C(F)(F)F (centres unmarked)
Leishmania in macrophages: 1.149 and -17.63

Compound: CCN1CCC(c2nc3ccc(NC(C)C)cn3n2)CC1
PfKRS1: 4.684
LiHisRS: 9.615
TcHisRS: 2.674
ClpP1P2: -5.121

Compound: NC(=O)c1ccccc1NC(=O)CCN1CCN(CCO)CC1
PfKRS1: 1.275
LiHisRS: 22.5
TcHisRS: 2.484
Leishmania in macrophages: 10.76
ClpP1P2: -5.499

Compound: Cc1nc(C)n(CC2CCCN2Cc2ccn(-c3ccccc3)n2)n1 (centres unmarked)
PfKRS1: 4.325
LiHisRS: 18.75
TcHisRS: 6.464
Leishmania in macrophages: 33.01
ClpP1P2: -4.632

Compound: CCOc1ccc(CNCC(O)c2ccccc2)cc1Cl (centres unmarked)
PfKRS1: 4.536
LiHisRS: 1.639
TcHisRS: 5.6
ClpP1P2: -10.89

Compound: O=C(NCCC1CCCO1)c1ccccc1N1CCOCC1 (centres unmarked)
PfKRS1: -0.1258
LiHisRS: 13.33
TcHisRS: 4.132
Leishmania in macrophages: 15.63
ClpP1P2: -8.332

Compound: Cc1cc(S(=O)(=O)N2CCCc3cc(Br)ccc32)sc1C(=O)O
PfKRS1: 9.629
LiHisRS: -0.8929
TcHisRS: -21.67
Leishmania in macrophages: 16.53
ClpP1P2: 8.998

Compound: CN1CCCC1c1cc2cccnc2n1Cc1ccc(F)cc1.Cl (centres unmarked)
Leishmania in macrophages: 23.17

Compound: CN(CCn1cccn1)C1CCCN(Cc2noc(C3CC3)n2)C1 (centres unmarked)
PfKRS1: -0.1977
LiHisRS: -4.494
TcHisRS: 3.518
Leishmania in macrophages: -24.86
ClpP1P2: 15.02

Compound: O=C(O)C(F)(F)F.O=S(=O)(Cc1ccccc1)N1CCCn2cnc(CN3CCCC3)c2C1
Leishmania in macrophages: -32.71

Compound: [H][C@@]12COC[C@]1(COC)CN(C(=O)COC)C2
Leishmania in macrophages: 14.66

Compound: CC(=O)N1CCC2(CC1)CN(C(=O)C1CC1)c1ccc(F)cc12
PfKRS1: 3.9
LiHisRS: 9.709
TcHisRS: 1.942
Leishmania in macrophages: 13.7
ClpP1P2: 4.19

Compound: CN(C)c1cc(C2CCCN(S(=O)(=O)c3cn[nH]c3)C2)ccn1 (centres unmarked)
PfKRS1: 1.656
LiHisRS: 0.6897
TcHisRS: 2.281
Leishmania in macrophages: 43.85
ClpP1P2: -16.77

Compound: O=C(NCc1ccco1)[C@H]1COC[C@H]2CN(Cc3ccoc3)C[C@H]21
PfKRS1: 0.7389
LiHisRS: 0
TcHisRS: 7.843
ClpP1P2: 10.57

Compound: Cc1noc(CNC(=O)CN(C)c2nc3c(C)ccc(C)c3s2)n1
PfKRS1: -0.182
LiHisRS: 4.301
TcHisRS: 4.663
Leishmania in macrophages: 16.84
ClpP1P2: -4.506

Compound: O=C(C1CC(=O)N(c2ccccc2Br)C1)N1CCN(CC(F)(F)F)CC1 (centres unmarked)
PfKRS1: 1.149
LiHisRS: 11.57
TcHisRS: 9.184
Leishmania in macrophages: 2.673
ClpP1P2: 3.993

Some entries from above, unchanged:

Compound	PfKRS1	LiHisRS	TcHisRS	Leishmania in macrophages	ClpP1P2
Cc1noc(CNC(=O)CN(C)c2nc3c(C)ccc(C)c3s2)n1	-0.182	4.301	4.663	16.84	-4.506
O=C(O)C(F)(F)F.O=C(O)C(F)(F)F.c1cc(CN2CCC3(CCOCC3COCC3CC3)CC2)ccn1 (centres unmarked)	-	-	-	4.845	-